# Source: patent US20250108358A1, “PHOTOCHEMICALLY DRIVEN REGENERATION OF CARBON DIOXIDE SORBENTS” (UT-Battelle, LLC, priority 2023, published 2025)
# Columns and labels:
# [1] = Total inorganic carbon (TIC) analysis, simulated system with KHCO3
# Procedure: Total inorganic carbon analysis: To quantify the amount of total inorganic carbon converted to CO2, the quantities of bicarbonate in the solution before and after the irradiation were determined using a total inorganic carbon analyzer consisting of an acidification module and a coulometric detection. […] Air was used as carrier gas (100 mL/min) in all experiments. 1 mM KHCO3 solution was tested similarly as the reference sample. Calculations were based on sample volume and 1 M Na2CO3 was used as the standard solution.
# [2] = TGA-MS quantification of CO2 present in solution
# [3] = pH measurements of mPAH 1 solutions under 355 nm lamp irradiation; assay type: physicochemical; conditions: 2 mM mPAH 1 aqueous solution, irradiated for 30 minutes
# Excerpt: Light sources: The light source, referred as the 355 nm lamp thereafter, is a portion of the output of an Oriel 200 W mercury-xenon lamp, which was selected using a 2″ round Oriel broadband filter centered at 355 nm with a full width at half maximum of ˜150 nm and highest transmission of ˜90% (Filters 51664 and 59814). The photon fluxes at the sample position was ˜500 μmol·m^−2·s^−1, which measured using a handheld meter.
# pH measurements and absorption spectra measurements: Typically for all experiments using the 355 nm lamp, 6 mL of solution mixtures were placed in a glass vial of diameter ˜2 cm and pH variations of the solutions upon light exposure were monitored continuously using a pH meter. Solutions were exposed to air and continuously stirred during pH measurements and sealed and kept in the dark without stirring for the mPAH 1 reverse reaction. Calculated amount of bicarbonate was replaced prior to second and third cycles. All absorption spectra during a given reaction event were acquired using a UV-vis spectrometer by taking a small amount (˜200 μL) of solution. Co-existence of different mPAH 1 conformers were verified using 1H NMR spectroscopy and theoretical calculations.
# [4] = pH change of mPAH 2 in distilled water with 470 nm LED; assay type: physicochemical
# [5] = Head space CO2 release measurement (infrared sensor, 470 nm LED)
# Excerpt: This step is important to reproducibly measure the CO2 release as described below. […] After the reading of CO2 was steady, irradiation was applied from outside of the glass chamber using a 470 nm LED with moderate power (˜ 13 mW/cm^2). The CO2 released to the chamber was monitored using a head space method, as also used in previous studies. The concentration of CO2 gas in the chamber was monitored by the sensor and compared to that of a standard. Not only does this method directly measure the CO2 gas released, but also it is suitable for studying relatively small samples with good sensitivity. […] Addition of a strong acid leads to complete decomposition of the bicarbonate and CO2 release. […] It also reacts with CO2 via an acid-base reaction to form bicarbonate salt.
# [6] = pH of mPAH 2/morpholine solution over CO2 loading and irradiation; assay type: physicochemical; conditions: 20 minutes after irradiation
# [7] = NMR study of proton transfer between mPAH 2 and morpholine in the dark; assay type: physicochemical; conditions: 1:1 morpholine/mPAH 2, 10 mM each
# [8] = 1 mM mPAH 2 in distilled water, 470 nm LED for 5 minutes
smiles,measurement,setting,value
O=S(=O)([O-])CCC[n+]1c(/C=C/c2cc(S(=O)(=O)[O-])cc3cn[nH]c23)sc2ccccc21.[Na+] [mPAH 1],Amount of bicarbonate in the solution,"[1]; 1 mM mPAH 1 + 1 mM KHCO3, after irradiation",5.12 ± 0.19 mg/L
same,Amount of bicarbonate in the solution,"[1]; 1 mM mPAH 1 + 1 mM KHCO3, before irradiation",12.02 ± 0.03 mg/L
same,Amount of bicarbonate in the solution,"[1]; 2 mM mPAH 1 irradiated (10 mL), added 2 mM KHCO2 (10 mL), reaction in dark",11.60 ± 0.25 mg/L
same,Amount of bicarbonate in the solution,"[1]; 2 mM mPAH 1 irradiated (10 mL), added 2 mM KHCO2 (10 mL), reaction under irradiation",5.43 ± 0.00 mg/L
same,weight loss due to dissolved CO2,"[2]; 1 mM KHCO3 + 1 mM mPAH 1, control sample (as prepared)",1.0%
same,weight loss percentage of dissolved CO2,"[2]; 1 mM KHCO3 + 1 mM mPAH 1, exposed to air, reacted under dark conditions",1.8%
same,weight loss percentage of dissolved CO2,"[2]; 1 mM KHCO3 + 1 mM mPAH 1, photo-irradiated sample",1.5%
same,pH reached upon irradiation,[3],5.2
COC(=O)c1ccc2sc(/C=C/c3cc(S(=O)(=O)[O-])cc4cn[nH]c34)[n+](CCCS(=O)(=O)O)c2c1 [mPAH 2],pH after keeping in the dark,"[4]; 1 mM mPAH 2, in the dark 45 minutes after irradiation",6.47
same,pH after irradiation,[4]; [8],3.88
same,pH lowering versus original pH,[4]; [8],2.67 unit
same,initial pH,"[4]; 1 mM mPAH 2 in distilled water, before irradiation",6.55
same,increase of CO2 concentration in the head space (maximum),"[5]; 10 mM mPAH 2/morpholine loaded with CO2, 470 nm LED 15 min, first cycle",1.74×10^3 ppm
same,CO2 released,"[5]; HCl added to CO2-loaded mPAH 2/morpholine solution, no irradiation",1.77×10^3 ppm
same,release of CO2,"[5]; mPAH 2/morpholine, 2nd cycle",1.57×10^3 ppm
same,CO2 release,"[5]; mPAH 2/morpholine, third cycle",1.50×10^3 ppm
same,pH recovered,[6],7.5
same,fraction of mPAH 2 changed to the acidic SP,[7],4/9
same,fraction of mPAH 2 that kept the protonated trans conformation,[7],5/9
"O=C([O-])O.[K+] [KHCO3, potassium bicarbonate, reference compound]",Amount of bicarbonate in the solution,[1]; 1 mM KHCO3 alone (reference sample),11.42 ± 0.22 mg/L
"O=C([O-])O.[Na+] [NaHCO3, reference compound]",CO2 released,[5],5.17×10^3 ppm

# Read-outs that look alike come from different tables or passages of the source.
